Source: the supplement of paper PMC10849652
Some of the results follow.

Protein sequences, listed by entry. Tags and fused reporters are not part of them. Lines headed by an entry give the natural chain unless they say otherwise; changes in a name come on top.
UniProt Q6QNY1: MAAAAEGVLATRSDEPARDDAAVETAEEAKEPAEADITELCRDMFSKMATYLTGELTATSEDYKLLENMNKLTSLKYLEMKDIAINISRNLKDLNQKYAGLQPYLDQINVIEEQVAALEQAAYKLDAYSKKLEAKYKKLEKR
UniProt Q8WY22: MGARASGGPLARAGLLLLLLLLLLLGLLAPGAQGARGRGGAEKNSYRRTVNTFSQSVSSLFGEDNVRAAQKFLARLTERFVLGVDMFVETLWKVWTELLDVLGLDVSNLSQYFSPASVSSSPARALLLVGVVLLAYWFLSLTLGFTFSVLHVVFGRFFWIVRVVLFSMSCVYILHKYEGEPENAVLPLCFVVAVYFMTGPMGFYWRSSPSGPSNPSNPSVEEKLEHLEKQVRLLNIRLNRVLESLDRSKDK
UniProt Q86UU0: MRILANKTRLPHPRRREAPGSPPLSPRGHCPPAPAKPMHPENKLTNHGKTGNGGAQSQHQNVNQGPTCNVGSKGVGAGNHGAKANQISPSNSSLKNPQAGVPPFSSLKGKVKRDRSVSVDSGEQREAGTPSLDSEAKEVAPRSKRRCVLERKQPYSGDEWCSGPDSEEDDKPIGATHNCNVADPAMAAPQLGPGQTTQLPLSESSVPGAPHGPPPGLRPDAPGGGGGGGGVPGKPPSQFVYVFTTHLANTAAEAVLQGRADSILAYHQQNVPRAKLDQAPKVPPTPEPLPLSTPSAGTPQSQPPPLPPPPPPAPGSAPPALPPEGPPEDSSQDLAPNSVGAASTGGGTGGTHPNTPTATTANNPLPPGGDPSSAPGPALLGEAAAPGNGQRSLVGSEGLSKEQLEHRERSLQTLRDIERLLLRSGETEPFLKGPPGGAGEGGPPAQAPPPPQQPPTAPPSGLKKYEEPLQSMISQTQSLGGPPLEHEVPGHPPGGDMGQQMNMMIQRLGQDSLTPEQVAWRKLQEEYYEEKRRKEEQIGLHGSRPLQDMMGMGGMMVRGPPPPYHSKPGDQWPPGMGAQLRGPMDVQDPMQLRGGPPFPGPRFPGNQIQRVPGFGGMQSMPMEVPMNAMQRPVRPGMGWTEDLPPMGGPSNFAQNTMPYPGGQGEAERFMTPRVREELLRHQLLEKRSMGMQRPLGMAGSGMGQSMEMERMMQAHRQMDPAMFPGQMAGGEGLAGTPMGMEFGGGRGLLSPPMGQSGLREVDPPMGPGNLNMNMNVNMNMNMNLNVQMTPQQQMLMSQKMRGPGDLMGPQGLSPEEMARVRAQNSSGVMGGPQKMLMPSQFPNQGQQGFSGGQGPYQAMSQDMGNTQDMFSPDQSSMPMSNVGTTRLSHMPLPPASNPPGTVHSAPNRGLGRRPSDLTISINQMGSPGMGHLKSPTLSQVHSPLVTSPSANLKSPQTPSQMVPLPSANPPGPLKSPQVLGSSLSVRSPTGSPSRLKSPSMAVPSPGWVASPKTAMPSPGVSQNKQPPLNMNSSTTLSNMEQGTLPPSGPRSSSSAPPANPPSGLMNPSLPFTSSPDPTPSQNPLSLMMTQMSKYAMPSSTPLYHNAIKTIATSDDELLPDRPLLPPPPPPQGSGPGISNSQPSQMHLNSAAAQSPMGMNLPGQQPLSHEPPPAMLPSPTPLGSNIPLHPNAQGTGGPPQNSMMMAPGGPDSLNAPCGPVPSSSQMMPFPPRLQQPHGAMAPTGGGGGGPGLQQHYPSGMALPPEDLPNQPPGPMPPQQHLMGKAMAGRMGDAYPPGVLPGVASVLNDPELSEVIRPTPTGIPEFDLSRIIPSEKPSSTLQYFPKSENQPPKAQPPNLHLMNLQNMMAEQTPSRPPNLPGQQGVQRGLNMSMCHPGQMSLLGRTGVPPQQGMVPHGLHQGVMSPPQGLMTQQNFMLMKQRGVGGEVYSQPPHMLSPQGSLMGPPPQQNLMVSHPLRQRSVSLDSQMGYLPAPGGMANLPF
UniProt Q15059, whole entry, looked up: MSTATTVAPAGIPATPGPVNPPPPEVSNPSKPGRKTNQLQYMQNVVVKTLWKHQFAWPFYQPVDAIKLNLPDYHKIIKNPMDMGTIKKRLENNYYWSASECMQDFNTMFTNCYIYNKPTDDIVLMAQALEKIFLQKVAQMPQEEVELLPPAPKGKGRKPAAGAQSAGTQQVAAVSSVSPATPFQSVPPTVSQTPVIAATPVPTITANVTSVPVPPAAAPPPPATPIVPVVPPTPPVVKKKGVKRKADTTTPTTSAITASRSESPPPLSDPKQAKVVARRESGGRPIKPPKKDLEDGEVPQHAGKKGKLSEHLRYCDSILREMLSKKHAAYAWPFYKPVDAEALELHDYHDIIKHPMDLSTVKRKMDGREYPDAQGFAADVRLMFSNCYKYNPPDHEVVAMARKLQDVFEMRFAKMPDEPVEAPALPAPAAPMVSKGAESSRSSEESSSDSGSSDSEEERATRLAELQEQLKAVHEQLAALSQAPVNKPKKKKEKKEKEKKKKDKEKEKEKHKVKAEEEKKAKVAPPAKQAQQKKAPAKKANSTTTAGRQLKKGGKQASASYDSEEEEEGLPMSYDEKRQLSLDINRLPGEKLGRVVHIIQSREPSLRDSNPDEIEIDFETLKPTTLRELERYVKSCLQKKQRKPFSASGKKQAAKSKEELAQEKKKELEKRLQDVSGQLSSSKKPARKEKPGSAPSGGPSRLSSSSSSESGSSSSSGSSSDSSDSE
UniProt Q9Y679: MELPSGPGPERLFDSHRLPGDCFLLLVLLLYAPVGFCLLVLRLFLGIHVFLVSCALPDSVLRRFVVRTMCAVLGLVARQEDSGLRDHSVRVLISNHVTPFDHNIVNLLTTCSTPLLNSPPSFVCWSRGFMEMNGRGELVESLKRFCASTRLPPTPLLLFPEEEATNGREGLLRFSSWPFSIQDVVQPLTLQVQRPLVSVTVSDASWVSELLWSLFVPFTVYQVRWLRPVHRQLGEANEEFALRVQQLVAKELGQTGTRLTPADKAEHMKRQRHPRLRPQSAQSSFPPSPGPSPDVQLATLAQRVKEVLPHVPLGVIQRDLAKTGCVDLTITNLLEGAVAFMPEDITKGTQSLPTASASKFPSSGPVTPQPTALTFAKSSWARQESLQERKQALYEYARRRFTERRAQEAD
UniProt Q9BXK5, whole entry, looked up: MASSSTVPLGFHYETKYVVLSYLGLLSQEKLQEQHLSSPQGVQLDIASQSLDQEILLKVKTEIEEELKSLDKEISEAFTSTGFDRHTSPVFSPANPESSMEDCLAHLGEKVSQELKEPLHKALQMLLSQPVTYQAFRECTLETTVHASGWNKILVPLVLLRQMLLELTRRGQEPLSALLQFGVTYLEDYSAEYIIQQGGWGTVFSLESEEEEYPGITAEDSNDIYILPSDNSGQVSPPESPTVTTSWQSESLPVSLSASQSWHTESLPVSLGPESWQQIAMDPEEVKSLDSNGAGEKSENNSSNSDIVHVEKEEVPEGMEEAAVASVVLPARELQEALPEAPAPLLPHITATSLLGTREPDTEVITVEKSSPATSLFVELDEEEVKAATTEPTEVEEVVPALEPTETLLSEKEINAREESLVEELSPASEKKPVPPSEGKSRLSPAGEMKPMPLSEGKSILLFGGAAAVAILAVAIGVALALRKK
UniProt P15291: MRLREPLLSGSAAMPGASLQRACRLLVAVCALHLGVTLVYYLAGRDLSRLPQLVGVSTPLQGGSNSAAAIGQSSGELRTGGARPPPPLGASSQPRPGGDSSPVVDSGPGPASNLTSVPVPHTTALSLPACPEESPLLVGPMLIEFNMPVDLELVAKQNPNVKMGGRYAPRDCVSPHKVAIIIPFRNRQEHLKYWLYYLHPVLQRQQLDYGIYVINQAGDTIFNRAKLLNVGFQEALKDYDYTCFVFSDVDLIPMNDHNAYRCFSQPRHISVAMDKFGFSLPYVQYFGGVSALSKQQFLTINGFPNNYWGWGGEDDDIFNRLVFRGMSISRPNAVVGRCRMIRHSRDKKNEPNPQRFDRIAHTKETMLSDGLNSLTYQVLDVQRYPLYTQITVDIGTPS
UniProt P46379: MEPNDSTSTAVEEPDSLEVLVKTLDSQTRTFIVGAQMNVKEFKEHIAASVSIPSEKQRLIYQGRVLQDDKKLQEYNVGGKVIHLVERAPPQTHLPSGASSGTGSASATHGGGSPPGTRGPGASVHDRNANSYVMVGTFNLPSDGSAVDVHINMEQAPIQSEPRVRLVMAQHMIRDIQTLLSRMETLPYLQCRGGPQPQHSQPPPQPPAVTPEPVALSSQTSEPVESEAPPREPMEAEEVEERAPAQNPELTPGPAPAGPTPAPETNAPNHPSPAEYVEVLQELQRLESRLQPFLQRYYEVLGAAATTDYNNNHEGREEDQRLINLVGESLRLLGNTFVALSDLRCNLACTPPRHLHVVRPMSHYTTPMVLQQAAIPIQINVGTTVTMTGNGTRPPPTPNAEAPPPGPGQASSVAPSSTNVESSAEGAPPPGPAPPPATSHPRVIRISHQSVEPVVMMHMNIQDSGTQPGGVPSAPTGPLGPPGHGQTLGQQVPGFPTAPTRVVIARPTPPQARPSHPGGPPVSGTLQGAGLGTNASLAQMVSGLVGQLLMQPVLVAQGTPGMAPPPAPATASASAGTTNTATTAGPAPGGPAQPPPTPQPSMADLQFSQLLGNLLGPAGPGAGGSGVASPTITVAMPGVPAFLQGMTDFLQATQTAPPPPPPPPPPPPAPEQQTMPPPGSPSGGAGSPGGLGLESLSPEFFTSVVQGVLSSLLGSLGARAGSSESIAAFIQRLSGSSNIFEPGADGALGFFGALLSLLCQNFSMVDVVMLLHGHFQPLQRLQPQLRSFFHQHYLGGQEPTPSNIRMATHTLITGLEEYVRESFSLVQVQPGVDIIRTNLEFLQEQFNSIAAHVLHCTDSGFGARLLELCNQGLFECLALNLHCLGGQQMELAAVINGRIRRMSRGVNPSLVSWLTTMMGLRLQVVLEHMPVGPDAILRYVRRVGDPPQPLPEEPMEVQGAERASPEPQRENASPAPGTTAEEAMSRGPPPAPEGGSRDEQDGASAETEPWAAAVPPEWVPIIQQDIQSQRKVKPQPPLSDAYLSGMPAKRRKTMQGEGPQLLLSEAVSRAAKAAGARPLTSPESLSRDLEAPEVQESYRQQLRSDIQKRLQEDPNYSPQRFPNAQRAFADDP
UniProt Q9UHQ4: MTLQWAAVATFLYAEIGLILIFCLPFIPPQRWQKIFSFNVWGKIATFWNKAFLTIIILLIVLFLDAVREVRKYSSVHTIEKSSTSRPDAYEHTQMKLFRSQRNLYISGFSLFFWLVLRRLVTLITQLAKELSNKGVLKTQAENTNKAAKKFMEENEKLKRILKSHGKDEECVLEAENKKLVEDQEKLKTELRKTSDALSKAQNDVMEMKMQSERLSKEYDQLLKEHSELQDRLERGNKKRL
UniProt P11274: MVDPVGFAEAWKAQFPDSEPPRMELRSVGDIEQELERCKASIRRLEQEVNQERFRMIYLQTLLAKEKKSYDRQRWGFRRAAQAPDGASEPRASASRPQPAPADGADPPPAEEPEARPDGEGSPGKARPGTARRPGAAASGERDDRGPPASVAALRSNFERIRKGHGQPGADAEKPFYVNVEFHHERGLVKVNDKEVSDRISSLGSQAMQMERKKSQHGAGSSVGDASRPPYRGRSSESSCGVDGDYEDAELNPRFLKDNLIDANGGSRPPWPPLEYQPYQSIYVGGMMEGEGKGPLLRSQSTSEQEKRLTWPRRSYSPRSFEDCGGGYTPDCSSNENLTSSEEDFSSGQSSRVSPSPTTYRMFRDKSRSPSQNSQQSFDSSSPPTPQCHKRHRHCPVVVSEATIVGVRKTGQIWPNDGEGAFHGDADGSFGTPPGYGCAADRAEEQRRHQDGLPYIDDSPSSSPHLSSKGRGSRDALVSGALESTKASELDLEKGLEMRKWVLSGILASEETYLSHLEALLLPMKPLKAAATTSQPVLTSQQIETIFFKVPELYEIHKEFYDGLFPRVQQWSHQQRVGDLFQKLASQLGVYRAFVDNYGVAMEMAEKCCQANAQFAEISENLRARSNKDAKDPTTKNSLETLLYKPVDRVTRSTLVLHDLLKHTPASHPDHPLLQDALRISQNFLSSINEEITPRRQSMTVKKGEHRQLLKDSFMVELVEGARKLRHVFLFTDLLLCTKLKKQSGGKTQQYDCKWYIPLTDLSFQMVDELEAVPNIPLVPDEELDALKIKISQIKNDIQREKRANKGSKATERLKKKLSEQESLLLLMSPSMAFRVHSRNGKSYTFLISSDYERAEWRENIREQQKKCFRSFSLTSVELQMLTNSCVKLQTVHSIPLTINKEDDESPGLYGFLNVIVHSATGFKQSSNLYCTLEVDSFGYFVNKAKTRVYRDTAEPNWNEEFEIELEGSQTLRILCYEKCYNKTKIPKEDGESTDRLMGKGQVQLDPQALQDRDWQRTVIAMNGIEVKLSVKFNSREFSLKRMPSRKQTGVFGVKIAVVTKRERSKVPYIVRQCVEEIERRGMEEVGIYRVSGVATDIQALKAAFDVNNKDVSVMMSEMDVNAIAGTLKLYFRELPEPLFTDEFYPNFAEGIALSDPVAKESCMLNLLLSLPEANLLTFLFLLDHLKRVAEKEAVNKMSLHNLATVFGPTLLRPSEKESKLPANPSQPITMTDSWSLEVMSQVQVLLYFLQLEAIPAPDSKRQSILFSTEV

What was measured:
Assay in all cases: log2 fold change, soluble protein after heating vs DMSO (PISA); higher = thermal stabilisation; K562 cells, 10 uM, 30 min; active = over 0.2 and 3.5 SD of the protein, either way, in both replicates (recomputed)
saracatinib = compound: CN1CCN(CCOc2cc(OC3CCOCC3)c3c(Nc4c(Cl)ccc5c4OCO5)ncnc3c2)CC1 [saracatinib]
Method in brief: (§1)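 Thermal stability values are relative to control samples and come from duplicates. They are expressed as log2 fold changes. For measurement, K562 cells (2×10^6 cells/mL) received 10 μM compound for 30 min, and aliquots were heated for 3 min over 48°C-58°C, pooled, and extracted at 4°C in PBS with 0.5% NP-40. Soluble protein, the supernatant after 21,000xg for 90 min, was quantified by TMTpro 16plex LC-MS/MS with equalised channel sums.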

sotrastaurin = compound: CN1CCN(c2nc(C3=C(c4c[nH]c5ccccc45)C(=O)NC3=O)c3ccccc3n2)CC1 [sotrastaurin]
Method in brief: as §1

alvocidib = compound: CN1CC[C@H](c2c(O)cc(O)c3c(=O)cc(-c4ccccc4Cl)oc23)[C@H](O)C1 [alvocidib]
Method in brief: as §1

Tubastatin A = compound: CN1CCc2c(c3ccccc3n2Cc2ccc(C(=O)NO)cc2)C1 [Tubastatin A]
Method in brief: as §1

[1] = compound: CNC(=O)C1=CC=CC=C1NC2=NC(=NC=C2Cl)NC3=C(C=C(C=C3)N4CCOCC4)OC
Method in brief: as §1

defactinib = compound: CNC(=O)c1ccc(Nc2ncc(C(F)(F)F)c(NCc3nccnc3N(C)S(C)(=O)=O)n2)cc1 [defactinib]
Method in brief: as §1

rucaparib = compound: CNCc1ccc(-c2[nH]c3cc(F)cc4c3c2CCNC4=O)cc1 [rucaparib]
Method in brief: as §1

[2] = compound: CNc1nc(-c2ccc3c(N)n[nH]c3c2)cc(N2C[C@@H](C(=O)NC3CCCCC3)CC[C@H]2C)n1
Method in brief: as §1

encorafenib = compound: COC(=O)N[C@@H](C)CNc1nccc(-c2cn(C(C)C)nc2-c2cc(Cl)cc(NS(C)(=O)=O)c2F)n1 [encorafenib]
Method in brief: as §1

[3] = compound: COC(=O)[C@H](CCSC)NC(=O)C1=C(C=C(C=C1)NC[C@H](CS)N)C2=CC=CC=C2
Method in brief: as §1

Measured: log2 fold change

BET1 (UniProt O15155)
inactive: saracatinib -0.004 | sotrastaurin 0.07 | alvocidib 0.027 | Tubastatin A -0.031 | [1] -0.011 | defactinib -0.027 | rucaparib -0.007 | [2] -0.049 | encorafenib 0.013 | [3] -0.055

AZGP1 (UniProt P25311)
inactive: saracatinib -0.305 | sotrastaurin -0.054 | alvocidib -0.473 | Tubastatin A 0.073 | [1] -0.209 | defactinib -0.079 | rucaparib -0.068 | [2] 0.29 | encorafenib -0.101 | [3] 0.068

BIRC2 (UniProt Q13490)
inactive: saracatinib 0.036 | sotrastaurin 0.028 | alvocidib -0.134 | Tubastatin A -0.002 | [1] 0.018 | defactinib -0.049 | rucaparib 0.003 | [2] 0.035 | encorafenib 0.007 | [3] 0.039

BLOC1S2 (UniProt Q6QNY1)
inactive: saracatinib -0.021 | sotrastaurin 0.114 | alvocidib 0 | Tubastatin A -0.033 | [1] -0.001 | defactinib 0.035 | rucaparib -0.114 | [2] -0.088 | encorafenib 0.038 | [3] 0.074

BOLA2 (UniProt Q9H3K6)
inactive: saracatinib 0 | sotrastaurin -0.014 | alvocidib -0.032 | Tubastatin A 0.007 | [1] 0.074 | defactinib -0.027 | rucaparib -0.007 | [2] -0.003 | encorafenib 0.021 | [3] -0.048

BCAT1 (UniProt P54687)
inactive: saracatinib -0.012 | sotrastaurin 0.046 | alvocidib -0.014 | Tubastatin A 0.007 | [1] -0.037 | defactinib -0.037 | rucaparib -0.052 | [2] -0.043 | encorafenib 0.011 | [3] 0.026

BLOC1S1 (UniProt P78537)
inactive: saracatinib 0.001 | sotrastaurin 0.006 | alvocidib -0.062 | Tubastatin A 0.015 | [1] -0.032 | defactinib -0.037 | rucaparib -0.037 | [2] 0.002 | encorafenib -0.104 | [3] 0

BRI3BP (UniProt Q8WY22)
inactive: saracatinib -0.017 | sotrastaurin 0.2 | alvocidib -0.012 | Tubastatin A 0.07 | [1] -0.173 | defactinib -0.084 | rucaparib 0.089 | [2] -0.06 | encorafenib -0.006 | [3] 0.047

BCL9L (UniProt Q86UU0)
inactive: saracatinib -0.042 | sotrastaurin 0.042 | Tubastatin A 0.053 | [1] -0.017 | defactinib -0.014 | rucaparib 0.026 | [2] -0.092 | encorafenib -0.033 | [3] 0.069

BRD3 (UniProt Q15059)
inactive: saracatinib 0.093 | sotrastaurin -0.116 | [1] 0.011 | defactinib -0.319 | rucaparib -0.083 | [2] 0.325 | encorafenib 0.086 | [3] -0.128
active: Tubastatin A -0.571

BAIAP2 (UniProt Q9UQB8)
inactive: saracatinib 0.009 | sotrastaurin -0.016 | Tubastatin A 0.036 | [1] -0.103 | defactinib -0.097 | rucaparib 0.014 | [2] -0.017 | encorafenib 0.006 | [3] -0.022

AUP1 (UniProt Q9Y679)
inactive: saracatinib 0.052 | sotrastaurin -0.116 | Tubastatin A 0.031 | [1] -0.062 | defactinib -0.015 | rucaparib -0.04 | [2] -0.041 | encorafenib 0.029 | [3] -0.037

BECN1 (UniProt Q14457)
inactive: saracatinib 0.013 | sotrastaurin -0.038 | Tubastatin A -0.065 | [1] -0.029 | defactinib -0.054 | rucaparib -0.014 | [2] -0.013 | encorafenib 0.001 | [3] 0.018

BCL2L13 (UniProt Q9BXK5)
inactive: saracatinib 0.009 | sotrastaurin -0.035 | alvocidib -0.085 | Tubastatin A -0.055 | [1] 0.015 | defactinib -0.021 | rucaparib 0.013 | [2] 0.001 | encorafenib -0.005 | [3] 0.038

BRIP1 (UniProt Q9BX63)
inactive: saracatinib -0.034 | sotrastaurin -0.016 | Tubastatin A -0.089 | [1] 0.001 | defactinib 0.083 | rucaparib -0.068 | [2] -0.088 | encorafenib -0.003 | [3] 0.018

BCOR (UniProt Q6W2J9)
inactive: saracatinib -0.182 | sotrastaurin 0.215 | alvocidib 0.146 | Tubastatin A 0.073 | [1] -0.093 | defactinib 0.041 | [2] -0.102 | [3] 0.07

BET1L (UniProt Q9NYM9)
inactive: saracatinib 0.127 | sotrastaurin 0.114 | alvocidib -0.382 | Tubastatin A 0.013 | [1] 0.053 | defactinib -0.072 | rucaparib 0.097 | [2] 0.024 | encorafenib -0.06 | [3] 0.025

B4GALT1 (UniProt P15291)
inactive: saracatinib -0.017 | sotrastaurin -0.07 | Tubastatin A 0.063 | [1] 0.023 | defactinib 0.066 | rucaparib 0.013 | [2] -0.041 | encorafenib 0.032 | [3] -0.084

BCAS1 (UniProt O75363)
inactive: saracatinib 0.025 | sotrastaurin 0.009 | alvocidib 0.061 | Tubastatin A -0.011 | [1] -0.007 | defactinib 0.022 | rucaparib 0.006 | [2] -0.017 | encorafenib -0.046 | [3] 0.157

BNIP1 (UniProt Q12981)
inactive: saracatinib -0.006 | sotrastaurin 0.036 | alvocidib -0.063 | Tubastatin A -0.012 | [1] -0.02 | defactinib -0.026 | rucaparib -0.036 | [2] -0.026 | encorafenib -0.007 | [3] -0.011

BLOC1S3 (UniProt Q6QNY0)
inactive: saracatinib 0.049 | sotrastaurin 0.034 | Tubastatin A -0.064 | [1] -0.05 | defactinib -0.044 | rucaparib -0.047 | [2] -0.031 | encorafenib -0.035 | [3] 0.028

BMS1 (UniProt Q14692)
inactive: saracatinib -0.11 | sotrastaurin 0.039 | alvocidib 0.155 | Tubastatin A 0.152 | [1] -0.004 | defactinib 0.192 | rucaparib 0.218 | [2] 0.112 | encorafenib 0.158 | [3] -0.035

BCCIP isoform 2 (UniProt Q9P287)
inactive: saracatinib -0.004 | sotrastaurin -0.044 | Tubastatin A -0.036 | [1] 0.013 | defactinib -0.019 | rucaparib 0.087 | [2] -0.005 | encorafenib 0.037 | [3] -0.024

BEX4 (UniProt Q9NWD9)
inactive: saracatinib 0.221 | sotrastaurin -0.137 | alvocidib -0.105 | [1] 0.098 | rucaparib 0.046 | [2] -0.042 | encorafenib 0.076

BAG6 isoform 3 (UniProt P46379)
inactive: saracatinib -0.01 | sotrastaurin -0.085 | alvocidib -0.054 | Tubastatin A -0.012 | [1] 0.026 | defactinib -0.064 | rucaparib 0.002 | [2] -0.036 | encorafenib 0.028 | [3] -0.039

BCAP29 isoform 2 (UniProt Q9UHQ4)
inactive: saracatinib 0.052 | sotrastaurin 0.104 | Tubastatin A -0.052 | [1] 0.002 | defactinib 0.033 | rucaparib -0.043 | [2] -0.016 | encorafenib -0.026 | [3] 0.018

2 consecutive records out of the list so far, quoted:
BAG6 isoform 3 (UniProt P46379)
inactive: saracatinib -0.01 | sotrastaurin -0.085 | alvocidib -0.054 | Tubastatin A -0.012 | [1] 0.026 | defactinib -0.064 | rucaparib 0.002 | [2] -0.036 | encorafenib 0.028 | [3] -0.039

BCAP29 isoform 2 (UniProt Q9UHQ4)
inactive: saracatinib 0.052 | sotrastaurin 0.104 | Tubastatin A -0.052 | [1] 0.002 | defactinib 0.033 | rucaparib -0.043 | [2] -0.016 | encorafenib -0.026 | [3] 0.018

Next part

BRD4 (UniProt O60885)
inactive: saracatinib 0.047 | sotrastaurin -0.149 | Tubastatin A -0.156 | [1] 0.065 | defactinib -0.051 | rucaparib -0.073 | [2] 0.204 | encorafenib 0.01 | [3] -0.002

B3GNT5 (UniProt Q9BYG0)
inactive: saracatinib 0.332 | sotrastaurin 0.031 | alvocidib 0.09 | [1] 0.067 | defactinib 0.05 | [2] -0.081 | [3] -0.032

BRAP (UniProt Q7Z569)
inactive: saracatinib -0.04 | sotrastaurin -0.198 | Tubastatin A 0.046 | [1] 0.057 | defactinib -0.087 | rucaparib 0.076 | [2] -0.024 | encorafenib 0.042 | [3] -0.064

B4GALNT1 (UniProt Q00973)
inactive: saracatinib -0.143 | sotrastaurin -0.07 | Tubastatin A -0.057 | [1] -0.021 | defactinib -0.182 | rucaparib 0.017 | [2] 0.025 | encorafenib 0.144 | [3] -0.425

B3GNTL1 (UniProt Q67FW5)
inactive: saracatinib 0.019 | sotrastaurin 0.066 | alvocidib 0.011 | Tubastatin A -0.086 | [1] -0.032 | defactinib 0.014 | [2] -0.094 | [3] 0.04

BCR (UniProt P11274)
inactive: saracatinib -0.052 | sotrastaurin -0.412 | alvocidib 0.152 | Tubastatin A 0.43 | [1] -0.01 | rucaparib 0.524 | [2] -0.001 | encorafenib 0.203
